# Results published in PubChem BioAssay AID248 (DTP/NCI, 2004).
# The list is a part of this screen's results and no random one: it gathers tests that were run many times, whatever their T/C, doses with no T/C, and many T/C values between a quarter and a half above the control. Other doses and runs of a compound stand elsewhere. T/C: endpoint of the treated group in % of that of the vehicle group. Some entries give survivors of the animals treated and no T/C: the source holds a T/C of zero for them, seemingly a mark for toxic or unscored doses. Some survivor counts are full or nearly so, which does not show that the dose was tolerated: survival well below the control is almost never listed, so the zero probably covers shortened survival too. Counts of survivors are from the toxicity check (mostly the fifth day) where no day follows; animals may have died later. Schedule codes are those of the source, read here as Q, the interval in days (D) or hours (H), X, the number of doses. Some doses were run more than once; the values are given in rising order. Where survival is the endpoint, the PubChem record calls one and a half times the control and up active, and a quarter to a half above the control has no call in these data; cut-offs in other NCI protocols can differ. Counts like (3×) stand for listed records that agree.
# Test system: L1210 leukemia ip in BDF1 mice, survival T/C
# Test: NCI In Vivo Anticancer Drug Screen. Data for tumor model L1210 Leukemia (intraperitoneal) in B6D2F1 (BDF1) mice
# Settings: T/C endpoint: mean survival time, higher T/C = longer survival
# [1] = dose: 50.0 mg/kg/injection, schedule: Q01DX009 (ip), vehicle: Klucel (hydroxypropylcellulose) (HPC)
# [2] = dose: 100.0 mg/kg/injection, schedule: Q01DX009 (ip), vehicle: Klucel (hydroxypropylcellulose) (HPC)
# [3] = dose: 200.0 mg/kg/injection, schedule: Q01DX009 (ip), vehicle: Klucel (hydroxypropylcellulose) (HPC)
# [4] = dose: 400.0 mg/kg/injection, schedule: Q04DX002 (ip), vehicle: Klucel (hydroxypropylcellulose) (HPC)
# [5] = dose: 200.0 mg/kg/injection, schedule: Q01DX009 (ip), vehicle: saline with Tween-80
# [6] = dose: 200.0 mg/kg/injection, schedule: Q01DX001 (ip), vehicle: saline
# [7] = dose: 400.0 mg/kg/injection, schedule: Q01DX001 (ip), vehicle: saline
# [8] = dose: 400.0 mg/kg/injection, schedule: Q04DX003 (ip), vehicle: saline with Tween-80
# [9] = dose: 300.0 mg/kg/injection, schedule: Q01DX001 (ip), vehicle: saline
# [10] = dose: 200.0 mg/kg/injection, schedule: Q01DX001 (ip), vehicle: saline with Tween-80
# [11] = dose: 200.0 mg/kg/injection, schedule: Q04DX003 (ip), vehicle: Klucel (hydroxypropylcellulose) (HPC)
# [12] = dose: 200.0 mg/kg/injection, schedule: Q01DX001 (ip), vehicle: Klucel (hydroxypropylcellulose) (HPC)
# [13] = dose: 400.0 mg/kg/injection, schedule: Q01DX001 (ip), vehicle: Klucel (hydroxypropylcellulose) (HPC)
# [14] = dose: 400.0 mg/kg/injection, schedule: Q04DX003 (ip), vehicle: Klucel (hydroxypropylcellulose) (HPC)
# [15] = dose: 400.0 mg/kg/injection, schedule: Q01DX009 (ip), vehicle: Klucel (hydroxypropylcellulose) (HPC)
smiles,measurement,setting,value
O=C1C=CC(=NBr)C=C1,survivor count,[1],3 of 3
same,survivor count,[2],0 of 3
same,survivor count,[3],0 of 3
O=C(O)C1CC1c1ccc(Br)cc1 (stereo unspecified),survivor count,[4],0 of 3
O=[N+]([O-])CC(O)c1ccccc1Cl (stereo unspecified),survivor count,[5],0 of 6
CC(C)CCC1(c2ccccc2)C(=O)NC(=O)NC1=O,survivor count,[6],0 of 6
same,survivor count,[7],0 of 6
CCCN(CCC)CCCCCCO,survivor count,[8],3 of 6
ONc1ccccn1,survivor count,[7],0 of 6
CNC(=O)c1ccc[n+](Cc2ccccc2)c1,survivor count,[9],1 of 6
COC1OCC(OS(C)(=O)=O)C(NC(C)=O)C1OS(C)(=O)=O (stereo unspecified),T/C,"dose: 400.0 mg/kg/injection, schedule: Q01DX001 (ip), vehicle: carboxymethylcellulose (CMC)",126 % of control
O=c1ccsc2ccccc12,survivor count,[10],0 of 3
same,survivor count,"dose: 400.0 mg/kg/injection, schedule: Q01DX001 (ip), vehicle: saline with Tween-80",0 of 3
Cc1ccc([N+](=O)[O-])c(OC(=O)Nc2ccc(Cl)c(Cl)c2)c1,survivor count,[11],6 of 6
CC1CN=C(c2ccc(NC(=O)c3ccc(C(=O)Nc4ccc(C5=NCC(C)CN5)cc4)nc3)cc2)NC1 (stereo unspecified),T/C,"dose: 2.0 mg/kg/injection, schedule: Q01DX015 (ip), vehicle: water",147 % of control
same,survivor count,"dose: 8.0 mg/kg/injection, schedule: Q01DX015 (ip), vehicle: water",3 of 6
same,survivor count,"dose: 10.0 mg/kg/injection, schedule: Q01DX015 (ip), vehicle: water",2 of 6
same,survivor count,"dose: 16.0 mg/kg/injection, schedule: Q01DX015 (ip), vehicle: water",0 of 6
same,survivor count,"dose: 20.0 mg/kg/injection, schedule: Q01DX015 (ip), vehicle: water",0 of 6
same,survivor count,"dose: 31.0 mg/kg/injection, schedule: Q01DX015 (ip), vehicle: water",0 of 6
same,survivor count,"dose: 40.0 mg/kg/injection, schedule: Q01DX015 (ip), vehicle: water",0 of 6
same,survivor count,"dose: 62.0 mg/kg/injection, schedule: Q01DX015 (ip), vehicle: water",0 of 6
same,survivor count,"dose: 125.0 mg/kg/injection, schedule: Q01DX015 (ip), vehicle: water",0 of 6
same,survivor count,"dose: 250.0 mg/kg/injection, schedule: Q01DX015 (ip), vehicle: water",0 of 6
Nc1nc(N)nc(CBr)n1,survivor count,"dose: 25.0 mg/kg/injection, schedule: Q01DX001 (ip), vehicle: Klucel (hydroxypropylcellulose) (HPC)",0 of 3
same,survivor count,"dose: 100.0 mg/kg/injection, schedule: Q01DX001 (ip), vehicle: Klucel (hydroxypropylcellulose) (HPC)",2 of 3
same,survivor count,[12],2 of 3
same,survivor count,[13],0 of 3
Cc1cc(OC(=O)Nc2ccc(Cl)cc2Cl)c(C)cc1Cl,survivor count,"dose: 50.0 mg/kg/injection, schedule: Q01DX009 (ip), vehicle: saline with Tween-80",2 of 3
same,survivor count,[5],3 of 3
O=C(/C=C\c1ccc([N+](=O)[O-])cc1)NCCCCNC(=O)/C=C/c1ccc([N+](=O)[O-])cc1,survivor count,[6],6 of 6
same,survivor count,[7],6 of 6
CCCCOCN1C(=O)NC(c2ccccc2)(c2ccccc2)C1=O,survivor count,[5],2 of 3
COc1cc2c(cc1OC)C(Cc1ccc(N)cc1)N(C)CC2 (stereo unspecified),survivor count,"dose: 100.0 mg/kg/injection, schedule: Q01DX001 (ip), vehicle: saline",1 of 4
same,survivor count,[6],0 of 4
same,survivor count,[7],0 of 4
CC1(C)C2CCC(CN=C(N)CSS(=O)(=O)O)C1C2 (stereo unspecified),T/C,"dose: 12.5 mg/kg/injection, schedule: Q04DX002 (ip), vehicle: saline with Tween-80",127 % of control
same,survivor count,"dose: 25.0 mg/kg/injection, schedule: Q04DX002 (ip), vehicle: saline with Tween-80",1 of 3
O=C(C[n+]1ccccc1)c1ccc(S(=O)(=O)c2ccccc2)cc1,survivor count,[11],1 of 6
same,survivor count,[14],0 of 6
CCN(CC)CCOc1cccc(OC)c1,survivor count,"dose: 150.0 mg/kg/injection, schedule: Q01DX009 (ip), vehicle: saline",3 of 6
same,survivor count,"dose: 300.0 mg/kg/injection, schedule: Q01DX009 (ip), vehicle: saline",0 of 6
CN=C(N)C(C)SS(=O)(=O)O (stereo unspecified),survivor count,"dose: 100.0 mg/kg/injection, schedule: Q04DX002 (ip), vehicle: Klucel (hydroxypropylcellulose) (HPC)",3 of 3
same,survivor count,[4],0 of 3
CCCCCCCCCCCC(=O)NC(=S)Nc1ccc(C)c(C)c1,survivor count,[10],6 of 6
same,survivor count,"dose: 400.0 mg/kg/injection, schedule: Q01DX009 (ip), vehicle: saline with Tween-80",5 of 6 and 3 of 3
CC(=O)OCC(=O)[C@@]1(O)CC[C@H]2[C@@H]3CCC4=CC(=O)CC[C@]4(C)[C@H]3[C@@H](O)C[C@@]21C,T/C,"dose: 14.0 mg/kg/injection, schedule: Q02DX010 (sc), vehicle: steroid suspending solution","93, 97, 98, 102, 106 % of control"
same,T/C,"dose: 22.0 mg/kg/injection, schedule: Q02DX010 (sc), vehicle: steroid suspending solution","95, 96, 101, 102, 104 % of control"
same,T/C,"dose: 33.0 mg/kg/injection, schedule: Q02DX010 (sc), vehicle: steroid suspending solution","98, 99, 101, 104, 105 % of control"
same,T/C,"dose: 50.0 mg/kg/injection, schedule: Q02DX010 (sc), vehicle: steroid suspending solution","96, 97, 98, 102, 118 % of control"
same,T/C,"dose: 75.0 mg/kg/injection, schedule: Q02DX010 (sc), vehicle: steroid suspending solution","95, 98, 102, 106, 109 % of control"
same,T/C,"dose: 112.0 mg/kg/injection, schedule: Q02DX010 (sc), vehicle: steroid suspending solution","96 (2×), 99, 104 % of control (2×)"
Nc1cc2ccncc2c2ccccc12,survivor count,[14],3 of 6
CCN(CC)C(=O)C1C=C2c3cccc4c3c(c(Br)n4C)CC2N(C)C1 (stereo unspecified),survivor count,"dose: 200.0 mg/kg/injection, schedule: Q01DX009 (ip), vehicle: saline",2 of 6
same,survivor count,"dose: 400.0 mg/kg/injection, schedule: Q04DX003 (ip), vehicle: saline",4 of 6
O=C1CCC(CC2CCCCC2)CC1,T/C,[8],127 % of control
CC1(C)C(=O)Nc2ccccc2N1C(=O)CN1CCCC1,survivor count,"dose: 150.0 mg/kg/injection, schedule: Q04DX003 (ip), vehicle: saline",1 of 6
same,survivor count,[9],0 of 6
CCC(C(=O)O)N1C(=O)C2C3C=CC(C3)C2C1=O (stereo unspecified),survivor count,[8],2 of 3
CN1CCC(Br)(C(=O)c2ccccc2)CC1,survivor count,[9],1 of 6
Cc1cc(NC(=O)NCCCl)c2c(c1C)CCCC2,survivor count,"dose: 80.0 mg/kg/injection, schedule: Q01DX001 (ip), vehicle: Klucel (hydroxypropylcellulose) (HPC)",3 of 6
same,survivor count,[12],3 of 6
same,survivor count,[13],2 of 6
O=C(CCl)NC1=C(N2CC2)C(=O)c2ccccc2C1=O,survivor count,[11],6 of 6
CC1C(C(=O)O)CC([N+](=O)[O-])C(Cl)C1[N+](=O)[O-] (stereo unspecified),survivor count,"dose: 100.0 mg/kg/injection, schedule: Q01DX009 (ip), vehicle: carboxymethylcellulose (CMC)",3 of 3
same,survivor count,"dose: 200.0 mg/kg/injection, schedule: Q01DX009 (ip), vehicle: carboxymethylcellulose (CMC)",0 of 3 and 0 of 6
same,survivor count,"dose: 400.0 mg/kg/injection, schedule: Q04DX002 (ip), vehicle: carboxymethylcellulose (CMC)",1 of 6 and 1 of 3
CCCCCCCCCCNCCCCNCCCCCCCCCC,survivor count,"dose: 12.5 mg/kg/injection, schedule: Q01DX009 (ip), vehicle: Klucel (hydroxypropylcellulose) (HPC)",4 of 6
same,survivor count,"dose: 25.0 mg/kg/injection, schedule: Q01DX009 (ip), vehicle: Klucel (hydroxypropylcellulose) (HPC)",0 of 6
same,survivor count,[1],0 of 6
same,survivor count,[2],0 of 6
same,survivor count,[3],0 of 6
same,survivor count,[15],0 of 6
Clc1ccc(NC2=NCCCS2)c2ccccc12,survivor count,[3],0 of 6
same,survivor count,[15],0 of 6
same,survivor count,[14],1 of 6
